Here are results for one substance from paper doi:10.1101/2024.11.13.623495.

Sequences of proteins named here, by UniProt entry; tags and fusion partners are left off. A change or cut given only in a name is not applied to a line headed by its entry.
UniProt Q9SNQ6: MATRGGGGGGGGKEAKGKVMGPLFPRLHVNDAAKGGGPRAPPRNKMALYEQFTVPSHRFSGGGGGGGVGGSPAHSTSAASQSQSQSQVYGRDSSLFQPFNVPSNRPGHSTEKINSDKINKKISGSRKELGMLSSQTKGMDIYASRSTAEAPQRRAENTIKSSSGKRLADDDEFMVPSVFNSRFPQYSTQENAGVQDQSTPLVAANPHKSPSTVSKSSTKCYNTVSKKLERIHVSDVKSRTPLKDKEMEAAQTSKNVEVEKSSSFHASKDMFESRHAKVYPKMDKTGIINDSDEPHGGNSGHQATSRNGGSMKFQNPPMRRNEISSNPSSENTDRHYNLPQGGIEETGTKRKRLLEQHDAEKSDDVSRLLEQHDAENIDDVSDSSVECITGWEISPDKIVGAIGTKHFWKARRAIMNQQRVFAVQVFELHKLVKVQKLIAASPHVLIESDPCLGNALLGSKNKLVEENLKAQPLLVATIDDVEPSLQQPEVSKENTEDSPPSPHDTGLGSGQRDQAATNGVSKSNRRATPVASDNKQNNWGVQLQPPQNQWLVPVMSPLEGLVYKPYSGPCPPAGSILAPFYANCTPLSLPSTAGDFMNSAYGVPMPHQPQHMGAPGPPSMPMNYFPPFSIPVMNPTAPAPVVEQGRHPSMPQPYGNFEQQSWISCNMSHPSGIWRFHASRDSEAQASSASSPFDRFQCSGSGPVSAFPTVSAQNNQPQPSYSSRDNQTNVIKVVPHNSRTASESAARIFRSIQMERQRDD
UniProt Q657D6: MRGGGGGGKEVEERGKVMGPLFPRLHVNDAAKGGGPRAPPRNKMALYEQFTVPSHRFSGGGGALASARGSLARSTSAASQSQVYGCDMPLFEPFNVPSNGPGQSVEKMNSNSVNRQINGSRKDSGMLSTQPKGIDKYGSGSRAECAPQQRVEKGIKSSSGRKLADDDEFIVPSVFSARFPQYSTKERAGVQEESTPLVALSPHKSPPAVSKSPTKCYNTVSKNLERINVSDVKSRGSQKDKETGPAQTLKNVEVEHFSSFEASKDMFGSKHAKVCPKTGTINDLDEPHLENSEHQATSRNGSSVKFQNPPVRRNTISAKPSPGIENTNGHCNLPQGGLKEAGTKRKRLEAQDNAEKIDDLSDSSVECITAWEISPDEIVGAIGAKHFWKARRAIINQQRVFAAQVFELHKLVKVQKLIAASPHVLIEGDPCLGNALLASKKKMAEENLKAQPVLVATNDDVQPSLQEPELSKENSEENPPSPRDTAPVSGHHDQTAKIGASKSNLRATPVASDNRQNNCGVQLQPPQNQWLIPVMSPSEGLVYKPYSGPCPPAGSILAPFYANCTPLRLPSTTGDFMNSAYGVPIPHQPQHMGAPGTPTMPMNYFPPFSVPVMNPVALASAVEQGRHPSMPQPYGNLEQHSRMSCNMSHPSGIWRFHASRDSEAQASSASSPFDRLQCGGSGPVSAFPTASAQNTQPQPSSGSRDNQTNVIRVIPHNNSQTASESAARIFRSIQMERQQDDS

No constants are given. Whether binding was seen depends on the method and setting. Binding seen in cells or lysates may run through a third protein. A result given as binding can be weak or reduced; the word gives no strength.

The assay has as its target OsELF3-1 (split-luciferase fusion) (rice (O. sativa subsp. japonica, Zhonghua 11)) (UniProt Q9SNQ6). Briefly: split reporter.

Regarding “OsELF3-2 (split-luciferase fusion) (from UniProt Q657D6)”, the binding result is “binds”.
